These results are taken from US5891657A (priority 1994, dated 1999).

One series relates to anti-analyte antibody. Briefly: Effect of potentially interfering substances on the immunoassay. The arrangement: species or system rabbit. The following applies: up to 0.5M.
For the compound `[Cl-].[Na+]` [Sodium chloride], the “effect on the assay” value was “no significant effect”.

The same series, now with this note: up to 500 ppm.
Consider `O=S(O)O` [sulfite], for which the “effect on the assay” value is listed as “no effect”.

Take `[Mn+2]` [manganese]: the “effect on the assay” value is on record as “no effect”. Still for that read-out and setting: then `[Fe]` [iron], with “no effect”.

The series is the same for the next values; noted with them: up to 1000 ppm.
In the case of `[Ca+2]` [calcium], the “effect on the assay” value is listed as “no significant effect”.

For the compound `O=S(O)(O)=S` [thiosulfate], the “effect on the assay” value is given as “no significant effect”. On the same count and under the same terms, the value for `[Cu]` [copper] was “no significant effect”. Same read-out and setting: the value for `[Zn]` [zinc] was “no significant effect”; that for `O=S(=O)(O)O` [sulfate] was “no significant effect”.

Staying with this series, now noted: up to 2500 ppm.
Regarding phosphates, the “effect on the assay” value is on record as “no significant effect”. Consider `O=[N+]([O-])O` [nitrate], for which the “effect on the assay” value was “no significant effect”. Same read-out and setting: then `[Ni]` [nickel], with “no significant effect”; and `[Mg+2]` [magnesium], with “no significant effect”.
